Measurements reported in paper PMC12040169 (PLOS Biology, 2025).
Some of the results follow.

Each compound was assayed on T1, CTL2-GFP (C. trachomatis L2/434/Bu, GFP-expressing). Conditions: bulk GFP, single well; 28.5 h, 10 µM; inhibitor.
T1 construct: L2/434/Bu, GFP-expressing
Parameters: species or system HeLa; Intracellular C. trachomatis growth in HeLa cells, bulk GFP fluorescence relative to DMSO

| Structure (SMILES) | % of control remaining |
| --- | --- |
| Cc1ccc(S(=O)(=O)NC(C(=O)O)c2ccccc2)cc1 (centres unmarked) [CBK286985] | 151.886% |
| O=C(COc1ccccc1[N+](=O)[O-])Nc1cc(-c2nc3cc(Cl)ccc3o2)ccc1Cl [CBK268639] | 82.8562% |
| Fc1ccccc1CN1CCN(c2nccnc2OCCN2CCOCC2)CC1 [CBK082886T] | 96.8934% |
| CCNC(=O)CN(CC)S(=O)(=O)c1cccc(C#N)c1 [CBK306481] | 124.181% |
| Cc1ccc(NC2C=CS(=O)(=O)C2)cc1 (centres unmarked) [CBK057487] | 84.9742% |
| O=C(NCc1cccs1)C1(Cc2cccc(-c3ccc(F)c(F)c3)c2)CCOCC1 [CBK285569] | 98.8365% |
| Cc1nnc(SCC(=O)n2c3c(c4ccccc42)CCCC3)n1C [CBK268351] | 152.478% |
| Cc1nc2ncnc(N3CCc4ccccc43)c2[nH]1 [CBK291228] | 146.526% |
| CN1CCCC(NC(=O)c2cc(-c3cccs3)no2)C1 (centres unmarked) [CBK282564] | 115.082% |
| CN(C)c1ccc(-n2ncc(-c3ccccc3C(F)(F)F)n2)cc1 [CBK112716] | 143.064% |
| Cc1ccc(CSCC(=O)NCCN2CCOCC2)cc1 [CBK269327] | 128.871% |
| Cc1nc(NS(=O)(=O)c2c(C)noc2C)sc1C(=O)Nc1ccc(F)cc1 [CBK050551] | 99.3272% |
| COc1ccc(C)cc1Nc1nc(N)nc(-c2oc3ccccc3c2C)n1 [CBK269026] | 97.7396% |
| CCn1cc(CN2CCC(Oc3cc(C)ccc3F)(C(=O)O)CC2)cn1 [CBK306644] | 91.2749% |
| CC(NC(=O)CCc1ccncc1)C1CC2CCC1C2 (centres unmarked) [CBK282090] | 113.845% |
| Cc1ccc(CN2C[C@@H]3CC[C@@](O)(c4ncccc4C)[C@@H]3C2)o1 [CBK285361] | 141.924% |
| Cc1cc(C)c2cc(C)c3nn(CC(=O)N(C)C)c(=O)n3c2c1 [CBK283821] | 127.045% |
| C=Cn1cc(CN2C3CCC2CC(O)(c2ccc(F)cc2)C3)c(C)n1 (centres unmarked) [CBK282742] | 103.672% |
| CN(C)CCCOC(=O)c1cccnc1Cl [CBK027436] | 113.68% |
| O=C(NCCO)c1cccc(-c2cnc3[nH]c(=O)n(Cc4ccccn4)c3n2)c1 [CBK065034] | 94.798% |
| CCOC(=O)c1cnc(C(C)(C)C)nc1O [CBK018470] | 120.663% |
| O=C(Nc1cccc([N+](=O)[O-])c1)c1ccc2nc(-c3ccccn3)c(-c3ccccn3)nc2c1 [CBK265137] | 145.805% |
| CN(CC(=O)N1CCN(Cc2ccc3c(c2)OCO3)CC1)S(=O)(=O)c1ccccc1 [CBK265791] | 103.009% |
| Cc1oc(C2CC2)cc1C(=O)N1CCC(c2ccncc2)CC1 [CBK283514] | 124.282% |
| CCOc1ccc(C(=O)N2CCN(S(=O)(=O)c3ccc(C)cc3C)CC2)cn1 [CBK298313] | 135.641% |

| Structure (SMILES) | % of control remaining |
| --- | --- |
| CCN(CC)C(=O)CN(CCc1ccc(OC)c(OC)c1)C(=O)NCCc1c[nH]c2ccccc12 [CBK158741] | 111.526% |
| O=C(Nc1scc(-c2ccc(-c3ccccc3)cc2)c1C(=O)O)c1ccco1 [CBK266156] | 95.1841% |
| c1ccc(-c2ccc(COc3cncc(N4CCNCC4)n3)s2)nc1 [CBK008960G] | 143.102% |
| Cc1nc2c(OCCOc3ccc(F)cc3)cccn2c1N(C)C(=O)CCC1CCCC1 [CBK147198] | 162.771% |
| CC1CCCCC12NC(=O)N(Cc1nnc(-c3cccs3)o1)C2=O (centres unmarked) [CBK306205] | 129.624% |
| CC(NC(=O)N1CCC1)c1cccc(S(N)(=O)=O)c1 (centres unmarked) [CBK306357] | 89.2509% |
| COc1ccc(Nc2ccc(-c3cccc(N(C)C)c3)cn2)cn1 [CBK037588] | 181.494% |
| C=CCOc1ccc(-c2nnn(CC(=O)O)n2)cc1 [CBK269772] | 126.393% |
| O=C(O)CCCCCNc1ccc(C(F)(F)F)cc1[N+](=O)[O-] [CBK286707] | 130.599% |
| CCOC(=O)C1(Cc2cc(-c3ccccc3)no2)CCNCC1 [CBK284924] | 111.465% |
| CN1CCN(C(=O)CC[C@@H]2CNC(=O)[C@@H]3C[C@H](NC(=O)c4cccs4)CN23)CC1 [CBK289013] | 122.809% |
| COc1cc(NS(=O)(=O)c2ccc(NC(=O)c3cccc4ccccc34)cc2)nc(OC)n1 [CBK262465] | 124.357% |
| O=C(CSc1nc[nH]n1)Nc1ccccc1[N+](=O)[O-] [CBK265005] | 107.177% |
| COC(=O)c1cc(-c2cccnc2)[nH]n1 [CBK268945] | 105.568% |
| CCN1CCN(Cc2c(C)nc3ccc(C)cc3c2O)CC1 [CBK263699] | 129.298% |
| CSc1ccc(S(=O)(=O)NCCSCc2ccc(C)cc2)cc1 [CBK268510] | 95.8886% |
| O=C1CNC(=O)C2(C/C=C/C[C@H]3COCC[C@@H]3N1)CCN(CC(=O)N1CCCCC1)CC2 [CBK292137] | 95.5708% |
| CN1[C@@H](CCC(=O)N2CCc3ccccc32)CNC(=O)[C@@H]2[C@H]1CCN2Cc1ccc(O)cc1 [CBK289021] | 131.76% |
| Cc1nc2ccc(C(=O)NC3CCCOC3)cc2s1 (centres unmarked) [CBK282509] | 131.065% |
| CC(=O)NC(c1nccs1)C1CCCN(C(=O)C2CCCCC2)C1 (centres unmarked) [CBK282170] | 100.286% |
| O=C(Cn1cccc(C(=O)Nc2ccc(F)cc2)c1=O)Nc1nc2c(s1)CCCCC2 [CBK286055] | 120.461% |
| COc1cc2[nH]c(=O)c(C(=O)NCCc3ccc(Cl)cc3)c(O)c2cc1OC [CBK159986] | 71.3277% |
| COCC(=O)N1CCC2(C/C=C/C[C@H]3COCC[C@@H]3NC(=O)CNC2=O)CC1 [CBK292158] | 104.585% |
| NC(=O)c1ccc(NC(=O)COc2ccccc2Cl)cc1 [CBK262961] | 97.0607% |
| NS(=O)(=O)c1ccc(NC(=S)N2CCN(CCO)CC2)cc1 [CBK265891] | 121.757% |

A second format for 3 compounds above.
Structure (SMILES),% of control remaining
O=C(Nc1scc(-c2ccc(-c3ccccc3)cc2)c1C(=O)O)c1ccco1 [CBK266156],95.1841%
c1ccc(-c2ccc(COc3cncc(N4CCNCC4)n3)s2)nc1 [CBK008960G],143.102%
Cc1nc2ccc(C(=O)NC3CCCOC3)cc2s1 (centres unmarked) [CBK282509],131.065%
